# Screen size: about 31,000 sequences; about 1,400 (4.5%) were called active.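 Rule for the calls: active = median seed-adjusted z-score above 1 or below -1; inactive = the rest.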 The list shows a part of the results.
# Test: Novel Modifiers of Survival Motor Neuron (SMN) Protein: Gene Identification via Genome-wide siRNA Screen;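 note: luminescence tracks full-length SMN protein made from the SMN2 reporter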
# Conditions: HEK293T SMN2-luciferase reporter, siRNA knockdown, 72 h; actives lie on both sides
# In short: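 HEK293T cells stably expressing an SMN2 splicing/cDNA-luciferase reporter were reverse-transfected with a druggable-genome siRNA library and read by luminescence at 72 hours; hits defined by MAD score above 1.0 or below -1.0.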
row,Sequence,median seed-adjusted z-score
1,CCUAUUUGGUUGUCGGAAATT against SLC16A10,inactive: -0.205
2,GGAACGAAUUUCAUAUACATT against ETV6,inactive: 0.0216
3,CAAGAGCAAGCAAACCUAATT against OLR1,inactive: 0
4,GGAAUUUGAUAGCACUCGATT against DNAJA2,inactive: 0
5,GGACUCCCAUCAGUUCCUATT against MFSD4,active: -1.89
6,CAGUGUGGAUACUAAUAAATT against PMVK,inactive: 0.269
7,GCAUGAAUCGUCUGACAGATT against CA7,inactive: -0.0754
8,AGAAUGCCCUAAACCUUAUTT against KCNS2,inactive: 0.0597
9,GGUUCUCGCAACUAUGGAATT against CTNNAL1,inactive: 0.229
10,CCGUGACGGUUUACUAUGATT against NUP210,inactive: 0.0904
11,GGAUGGAAAUAGCCUUGAATT against PTGR2,inactive: 0.14
12,CCGAAAGUGAGACUCCUAATT against CBLC,inactive: -0.726
13,GCAAAUUAUCAGAAGAGAATT against RAD51C,inactive: -0.0724
14,CAAAUCCUAUAGUAUAACATT against RPS6KC1,inactive: 0.344
15,GAUGCAUUCGAUGACCUGATT against PTGES2,inactive: -0.02
16,CACGGUAUCUCAACCGGAATT against HGS,active: 1.16
17,GGAACAUGCUGGACUCCCATT against GAL3ST1,inactive: 0.263
18,CCAUCUGUCGCAUAUCUCATT against ACOX2,inactive: -0.545
19,GGAAGUACGAGGUCACUUATT against EPHA2,inactive: 0.0948
20,GGUUGACAGUGUGCCUAAATT against NRIP1,inactive: 0.789
21,CGAGGACAGUUCUACUAUATT against HSD3B1,inactive: -0.145
22,CUGGAUUUACUAUAACCAATT against NME7,inactive: -0.331
23,CGCUCACAGUACGACUACATT against SOX9,inactive: 0.775
24,GAGCAGGACUAAACGAAUUTT against SGK3,inactive: 0.178
25,CCGAGAUCAUGGACGCCUUTT against BOK,inactive: 0
26,GAUUGGAACUUUCACCGAATT against NOM1,inactive: 0.00828
27,GGUCUUUCCAGAUACUAAATT against SMPDL3B,inactive: 0.0704

row,Sequence,median seed-adjusted z-score
1,GAGGAAAUUUGAGAAAGUUTT against UTS2,inactive: 0.0487
2,UCACCAUCCUGGUUGCUCUTT against GHRHR,inactive: 0
3,GAAAGGUACUACUACUAUUTT against KLHL4,inactive: 0
4,GGGAUGGACUUACCAGAUATT against ZNF304,inactive: -0.44
5,ACGCAACCCUCAACAGCUCTT against UTS2R,inactive: 0.0819
6,GGACAGCUGCAAUUCCGAUTT against HECW1,inactive: -0.878
7,GCAAUGCUGUUAUCAAUGATT against KIF1B,inactive: 0.376
8,CAACCUCACUGAUCGUCAATT against HOXA11,inactive: -0.222
9,CGAGAUAGUGGAUCAGCAATT against MANBA,inactive: 0.473
10,AAAUGUAACCUUUUGCUUUTT against DAD1,inactive: -0.45
11,GCAAGUGUAGUUUGAAAAATT against SCUBE2,inactive: 0.452
12,CACUUAAUCUGGGCAUGAATT against ZNF334,inactive: 0.611
13,GAAAAUAAUUGAUAGAAGATT against SERBP1,inactive: 0.143
14,GGGUGUCUAUGGAAUGGGATT against ME2,inactive: -0.0557
15,GGAACUACAGAUGAAUUAATT against MMAB,inactive: 0
16,CGACAACACCGUGUCCAAATT against BMP1,inactive: -0.298
17,GAUGAACGAUUUGAACAAATT against BIN2,inactive: 0.205
18,CCAUGGAGUGGGCAAGUUATT against AGPS,inactive: 0.289
19,AGGUGAUGCAGGACAGAAATT against COL18A1,inactive: -0.441
20,CCAUCCAUCAACUUCUAUATT against SAT1,inactive: -0.00791
21,GCUCUACGAAGAGACCCUATT against SERPINB5,inactive: -0.0181
22,GGUCCUGUUGGAGAUGAUATT against UBE2D2,inactive: 0.574
23,GGCUCAGAUUCGCAACAAATT against EMX2,inactive: 0.324
24,GACCUAUUAUGAUGGAGCATT against SCUBE2,inactive: 0.452
25,GGCUAUUGCACAUUAUGAATT against NAPB,inactive: 0.716
26,CACAUGCACUAGAACGGAATT against BAZ2B,inactive: -0.679
27,CGCUACCUGUCCCUGUAUATT against GPR6,inactive: 0

# Reference: PubChem BioAssay AID1347426 (Functional Genomics Laboratory (NCATS/FGL), 2020)
